What was measured:
[1] = In vivo microdialysis probe recovery by retrodialysis; design: species or system rat; settings: ringer's solution with 4% BSA, 1 μL/min
[2] = In vitro nonspecific binding to microdialysis tubing and in vitro probe recovery

## COc1ccc(OC)c(C(=Cc2ccc(O)c(OC)c2)C(=O)NCCc2ccc(O)cc2)c1 [FLZ, N-[2-(4-hydroxy-phenyl)-ethyl]-2-(2,5-dimethoxy-phenyl)-3-(3-methoxy-4-hydroxy-phenyl)-acrylamide]
[1]; 20 ng/mL perfusate
  relative in vivo recovery of FLZ, brain microdialysis probe: 13.2%
[1]; 200 ng/mL perfusate
  relative in vivo recovery of FLZ, blood microdialysis probe: 29.0%
[2]; after addition of BSA (0.5%, 2%, or 4%, w/v) to the perfusion fluid
  FLZ bound to the tubing (nonspecific binding): less than 15%
[2]; perfused with ringer's solution containing FLZ, no BSA
  FLZ bound to the tubing (nonspecific binding): More than 90%
[2]; pilot conditions, ringer's solution without BSA
  in vitro recovery of FLZ: less than 1%

— article PMC4090575, “An In Vivo Microdialysis Study of FLZ Penetration through the Blood-Brain Barrier in Normal and 6-Hydroxydopamine Induced Parkinson's Disease Model Rats” (BioMed Research International, 2014)
